## Percent effect of library compounds

The chains behind the UniProt entries cited, without tags or fusion partners.
UniProt P9WFT3, whole entry: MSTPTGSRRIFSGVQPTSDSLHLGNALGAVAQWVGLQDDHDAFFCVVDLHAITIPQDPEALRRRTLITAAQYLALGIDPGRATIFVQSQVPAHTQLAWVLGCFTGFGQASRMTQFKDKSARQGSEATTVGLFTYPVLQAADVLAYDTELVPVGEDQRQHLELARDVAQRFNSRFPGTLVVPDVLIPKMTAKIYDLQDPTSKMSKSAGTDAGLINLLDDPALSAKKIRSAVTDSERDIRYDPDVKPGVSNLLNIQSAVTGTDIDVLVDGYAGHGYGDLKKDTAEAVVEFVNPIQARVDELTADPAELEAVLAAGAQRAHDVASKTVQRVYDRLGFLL
UniProt P9WNZ1, whole entry: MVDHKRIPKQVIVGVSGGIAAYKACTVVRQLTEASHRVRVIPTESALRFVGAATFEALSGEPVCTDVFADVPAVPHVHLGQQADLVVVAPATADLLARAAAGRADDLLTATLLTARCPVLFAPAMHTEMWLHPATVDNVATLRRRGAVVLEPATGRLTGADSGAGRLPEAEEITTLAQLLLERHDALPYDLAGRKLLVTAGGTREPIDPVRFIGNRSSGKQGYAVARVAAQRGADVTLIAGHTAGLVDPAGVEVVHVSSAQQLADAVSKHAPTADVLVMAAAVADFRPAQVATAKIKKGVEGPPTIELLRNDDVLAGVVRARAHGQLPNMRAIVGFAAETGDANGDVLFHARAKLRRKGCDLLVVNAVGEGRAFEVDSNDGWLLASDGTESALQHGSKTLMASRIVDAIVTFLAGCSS

A: 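Cell assay of Leishmania donovani living inside macrophages; the read-out is not stated. Tested at 30 µM. The record gives no direction; compounds that gave an IC50 in retests scored well above the rest, so higher reads as stronger inhibition. Of about 69,000 compounds tested this way, about 1,000 (1.5%) reached 50% or more in at least one test.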
B: 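Tryptophan-tRNA ligase, Mycobacterium tuberculosis (UniProt P9WFT3). Enzyme assay of tryptophanyl-tRNA synthetase; the read-out is not stated. Tested at 10 µM. Higher most likely means stronger inhibition; the record gives no direction and few retests gave an IC50. Of about 65,000 compounds tested this way, about 64 (0.098%) reached 50% or more in at least one test.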
C: 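Assay of Toxoplasma gondii numbers, read through their beta-galactosidase reporter with a colour substrate. Concentration: 10 µM. The record gives no direction; the compounds picked for IC50 retests had high values, so higher reads as fewer parasites. Of about 67,000 compounds tested this way, about 260 (0.38%) reached 50% or more in at least one test.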
D: 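Enzyme assay of CoaBC with a phosphate dye (Biomol Green) read at 650 nm. Target: Coenzyme A biosynthesis protein CoaBC, Mycobacterium tuberculosis (UniProt P9WNZ1). Concentration: 30 µM. Higher reads as stronger inhibition, judged from the few compounds that gave an IC50. Most strong results did not repeat in a second test. About 67,000 compounds were tested under these conditions; 0.06% (about 40) showed 50% or more at least once.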

Results are given as percent effect. How 0% and 100% were set is not recorded. Most values in the screen are low, and negative values occur. This is an unselected part of the compounds tested. A dash means the value is not listed here; it may have been measured.

SMILES,A,B,C,D
COc1cccc(-c2noc(C3CCN(Cc4ccc(C)cc4)C3)n2)c1 (stereo unspecified),-,-,-,5.181
Cn1ccc(C(=O)N2CCc3[nH]nc(Nc4ccccc4)c3C2)n1,-38.75,-5.937,-15.69,3.206
O=C(CCc1ccc(F)c(F)c1)N1CCCCC1Cn1cccn1 (stereo unspecified),-2.647,-2.508,7.697,5.744
Cc1ccc(O)c(C(=O)N2CCC(CN3CCCCCC3)CC2)c1,39.89,-2.408,5.306,-16.52
O=C1CCCc2[nH]c(=O)c(C(=O)N(Cc3ccsc3)C3CC3)cc21,-3.155,-0.8708,6.51,-4.608
Cc1nn(CCC#N)c(C)c1[C@@H]1C=C[C@@H](NCc2cccc(Cl)c2)C1,-10.48,1.883,2.806,-2.032
C1CC(CN2CCO[C@H]3[C@H](OCC4CC4)CC[C@@H]32)CCO1,-,0.9381,-,3.934
CC(C)=CCC1(C(=O)O)CCCN(c2cc(N)ncn2)C1 (stereo unspecified),-3.462,2.938,0.4263,0.3628
O=C(NC1CCCC1)N1C[C@H]2CN(c3ccccn3)C[C@@]2(C(=O)O)C1,-,-1.069,-,1.104
Cc1c(Cn2c(=O)cnc3ccccc32)cnn1C,-27.87,2.719,-22.95,-1.788
CC(C)(C)c1nc(CN(Cc2ccccc2Cl)C2CCCC2)no1,2.714,-4.152,-10.24,0.6148
Cc1ccsc1C(=O)Nc1cc(Br)c(=O)n(C)c1,-1.793,-5.489,7.746,3.361
O=C(O)C(F)(F)F.[H][C@@]12C[C@H](c3nc(C)no3)CN(Cc3ccc4c(c3)OCO4)[C@]1([H])CCO2,25.3,-,2.636,-
CC(C)[C@@H]1CN(CCOc2ccccc2)C[C@H]1NS(=O)(=O)N(C)C,-16.7,-2.142,3.358,-6.237
CN1[C@@H](C(=O)NCC2CC2)C[C@@H]2CN(c3ncccn3)C[C@@H]21,-,0,-,5.092
CCOCC1CN(C(=O)c2cc(C)oc2C)Cc2c1cnn2C.O=C(O)C(F)(F)F (stereo unspecified),-61.98,-,-45.2,-
O=C(Nc1cc(F)ccc1OCC1CCCO1)c1ccoc1 (stereo unspecified),-24.59,-1.383,0.1158,0.216
COCCC(=O)N1CCOCC(Cc2ccc3c(ccn3C)c2)C1 (stereo unspecified),-10.57,-6.596,19.6,0.9864
CCCc1ncc(C(=O)N2CCOc3ncccc32)s1,13.94,-6.859,-11.11,8.811
COc1ccc(CN(C(=O)CCC(C)C)c2cnn(C)c2)c(OC)c1,29.28,0.2337,-0.2363,2.532
CCCc1ccc(CN2CCN(C(=O)NCC)[C@H]3CS(=O)(=O)C[C@H]32)o1,-,3.336,-,10.15
COc1ccc(CN2CCCn3cnc(COC(C)C)c3C2)cc1.O=C(O)C(F)(F)F,-3.243,-,-5.482,-
c1ccc(CCN2CCCC(c3ccnc4nccn34)C2)cc1 (stereo unspecified),-7.633,-4.557,1.756,0
Cn1cncc1C(=O)N1CCOC2(COCCN(CC3CC3)C2)C1 (stereo unspecified),-,-,-,2.788
O=C1CC[C@H]2CN(Cc3cccnc3)CC[C@H]2N1CCc1c[nH]cn1,-,0.8081,-,-0.1212
CCOc1nnc(CN2CCCC(c3nc4ccccc4[nH]3)C2)s1 (stereo unspecified),-17.28,3.382,-3.686,8.71
COc1ccc2nnc(CCCC(=O)NCc3ccccc3F)n2n1,59.63,4.355,6.604,-2.058
O=C(NCCC1CCCCO1)c1cc(COc2cncc(Cl)c2)on1 (stereo unspecified),11.05,26.61,0.8943,0
c1ccc(COC[C@@]23CCC[C@@H]2CN(Cc2ccccn2)C3)nc1,-,-1.903,-,0.2114
Cn1cnnc1C1CCCN(C(=O)NCCNc2ccccn2)C1 (stereo unspecified),25.28,-3.675,2.54,7.179
O=C(Cc1ccccc1)NCCNCc1cccc(O)c1,-7.952,8.471,12.05,4.774
CCc1ccsc1C(=O)NC(C#N)CC(C)C (stereo unspecified),26.51,2.12,3.396,9.385
CC(c1cccc(-c2ncccc2F)c1)N(C)C (stereo unspecified),42.01,5.113,11.61,0
O=C1CSC(c2ccncc2)c2c[nH]nc2N1 (stereo unspecified),14.01,-3.889,4.52,-11.32
Cc1cc(C)nc(N2CCCC2c2cccnc2)n1 (stereo unspecified),7.357,-1.867,2.128,5.651
CCS(=O)(=O)N(C)C1CCN(C(=O)c2cccc(Cl)c2)CC1,8.673,0.5629,6.504,11.8
CCC(NC(=O)C(C)C)c1ccccc1C (stereo unspecified),-3.383,2.422,-8.489,1.618
Cl.c1cnc2c(c1)cc(C1CCOCC1)n2CCN1CCOCC1,-11.27,-,5.445,-
Cc1cc(C2CCNCC2)nc(-c2ccsc2)n1,-,3.357,-,1.399
[H][C@]12CCN(Cc3ccco3)[C@@]1([H])CC[C@H](COCC1CCOCC1)O2,-6.008,-,-1.545,-
NC(=O)Cn1cc(NC(=O)N2CCCCCC2)cn1,30.12,-4.056,-3.621,-2.813
Cn1cc(-c2ncnc3c2CCN(C(=O)N2CCOCC2)CC3)cn1,1.652,0.8382,0.5848,4.405
O=C(C[C@@H]1COC[C@H]2CN(Cc3ccncc3)C[C@@H]12)N1CCCC1,-,1.66,-,5.764

The last 5 entries again:

- Cc1cc(C2CCNCC2)nc(-c2ccsc2)n1 | B: 3.357%; D: 1.399%
- [H][C@]12CCN(Cc3ccco3)[C@@]1([H])CC[C@H](COCC1CCOCC1)O2 | A: -6.008%; C: -1.545%
- NC(=O)Cn1cc(NC(=O)N2CCCCCC2)cn1 | A: 30.12%; B: -4.056%; C: -3.621%; D: -2.813%
- Cn1cc(-c2ncnc3c2CCN(C(=O)N2CCOCC2)CC3)cn1 | A: 1.652%; B: 0.8382%; C: 0.5848%; D: 4.405%
- O=C(C[C@@H]1COC[C@H]2CN(Cc3ccncc3)C[C@@H]12)N1CCCC1 | B: 1.66%; D: 5.764%

The values are deposited in ChEMBL (CHEMBL3988442, “University of Dundee, Small-Polar-MMV Screening Library” (2021)).